Test system: panelists
Test: Quantitative descriptive sensory evaluation by ten trained panelists (15-point linescale)
Assay type: in vivo, human
Parameters: key to Numbing, Duncan's (5%) level / Total Burning, Duncan's (5%) level / Tingling, Duncan's (5%) level / Total Trigeminal Impact, Duncan's (5%) level / Icy Cool In Mouth (after expectoration to 60 minutes), Duncan's (5%) level / Icy Cool In Mouth and Immediately After Expectoration, Duncan's (5%) level / Cooling Breath In (after expectoration to 60 minutes), Duncan's (5%) level: the Duncan's levels are reported as Levels A, B, and C; the Duncan's levels are reported as Levels A, B, and C; the Duncan's levels are reported as Levels A, B, and C
[1] = 3 μM solution, 15-point linescale
[2] = 3 μM solution, after expectoration to 60 minutes
[3] = 5 μM solution, after expectoration to 60 minutes

Cc1ccc(OCC(=O)N(Cc2cccs2)c2ccn[nH]2)cc1 [Comparative Compound 1, reference compound]
Cooling Breath In (after expectoration to 60 minutes), Duncan's (5%) level (3 μM solution): B | Icy Cool In Mouth (after expectoration to 60 minutes), Duncan's (5%) level (3 μM solution): B | Average Bitterness at 2 Minutes After Expectoration, Bitterness Rating [1]: 1.10 | Average Numbing (after expectoration to 60 minutes) [1]: 1.5 | Average Tingling (after expectoration to 60 minutes) [1]: 0.7 | Average Total Burning (after expectoration to 60 minutes) [1]: 1.1 | Average Total Trigeminal Impact (after expectoration to 60 minutes) [1]: 2.8 | Numbing, Duncan's (5%) level [2]: B | Total Burning, Duncan's (5%) level [2]: B | Total Trigeminal Impact, Duncan's (5%) level [2]: B

O=C(COc1ccc(F)cc1)N(Cc1cccs1)c1cc[nH]n1 [Compound 102, 2-(4-flourophenoxy)-N-(1H-pyrazol-5-yl)-N-(thiophen-2-ylmethyl)acetamide]
Tingling, Duncan's (5%) level [3]: A | Total Burning, Duncan's (5%) level [3]: A | Total Trigeminal Impact, Duncan's (5%) level [3]: A

COc1ccc(OCC(=O)N(Cc2cccs2)c2cc[nH]n2)cc1 [Compound 103, 2-(4-methoxyphenoxy)-N-(1H-pyrazol-3-yl)-N-(thiophen-2-ylmethyl)acetamide]
Numbing, Duncan's (5%) level [3]: A | Total Burning, Duncan's (5%) level [3]: A | Total Trigeminal Impact, Duncan's (5%) level [3]: A

CCc1ccc(OCC(=O)N(Cc2cccs2)c2cc[nH]n2)cc1 [Compound 104, 2-(4-ethylphenoxy)-N-(1H-pyrazol-3-yl)-N-(thiophen-2-ylmethyl)acetamide]
Cooling Breath In (after expectoration to 60 minutes), Duncan's (5%) level (3 μM solution): C | Icy Cool In Mouth (after expectoration to 60 minutes), Duncan's (5%) level (3 μM solution): C | Icy Cool In Mouth and Immediately After Expectoration, Duncan's (5%) level (3 μM solution): B

Cc1ccc(OCC(=O)N(Cc2cccs2)c2cc[nH]n2)cc1C [Compound 105, 2-(3,4-dimethylphenoxy)-N-(1H-pyrazol-3-yl)-N-(thiophen-2-ylmethyl)acetamide]
Cooling Breath In (after expectoration to 60 minutes), Duncan's (5%) level (5 μM solution): C | Icy Cool In Mouth (after expectoration to 60 minutes), Duncan's (5%) level (5 μM solution): C
